From article PMC6021382
No constants are given. Whether binding was seen depends on the method and setting. In cells and extracts the contact can be indirect. Some results given as binding are weak or reduced against the parent protein; the word gives no strength. For some assays here: Where a sequence is shown, tags or fusion partners need not be part of it. Values belong to the molecule of their own block, whether it stands above or below them.

Amino acid sequences for entries named in this document (tags omitted).
UniProt Q9HCE7: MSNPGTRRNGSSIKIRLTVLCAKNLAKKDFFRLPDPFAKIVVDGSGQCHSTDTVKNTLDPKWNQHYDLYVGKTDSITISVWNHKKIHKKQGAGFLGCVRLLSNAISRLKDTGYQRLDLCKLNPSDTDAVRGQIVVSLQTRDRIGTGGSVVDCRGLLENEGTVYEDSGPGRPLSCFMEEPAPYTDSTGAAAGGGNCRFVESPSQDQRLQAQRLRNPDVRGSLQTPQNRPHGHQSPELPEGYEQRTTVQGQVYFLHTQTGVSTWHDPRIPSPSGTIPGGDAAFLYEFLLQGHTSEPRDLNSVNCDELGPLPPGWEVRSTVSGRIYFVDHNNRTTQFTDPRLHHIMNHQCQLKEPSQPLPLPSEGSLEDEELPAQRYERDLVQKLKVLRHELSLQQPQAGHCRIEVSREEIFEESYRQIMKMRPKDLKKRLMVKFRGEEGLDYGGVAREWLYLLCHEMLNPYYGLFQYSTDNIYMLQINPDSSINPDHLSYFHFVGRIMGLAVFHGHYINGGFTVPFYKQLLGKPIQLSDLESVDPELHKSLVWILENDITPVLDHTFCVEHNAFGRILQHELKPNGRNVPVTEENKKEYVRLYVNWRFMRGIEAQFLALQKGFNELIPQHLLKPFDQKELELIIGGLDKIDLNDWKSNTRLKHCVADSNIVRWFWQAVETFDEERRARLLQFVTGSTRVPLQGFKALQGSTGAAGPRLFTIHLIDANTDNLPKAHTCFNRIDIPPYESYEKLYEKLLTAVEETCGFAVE

Columns and labels:
[1] = target: T1, Flag-Smad6-NLS (nuclear-forced full-length human Smad6) (human) (UniProt O43541); experiment: co-IP; 293T cells transiently transfected with expression plasmids for 48 h; lysates in RIPA buffer; IP with the indicated antibodies (anti-Flag, anti-HA), western blot
T1 sequence: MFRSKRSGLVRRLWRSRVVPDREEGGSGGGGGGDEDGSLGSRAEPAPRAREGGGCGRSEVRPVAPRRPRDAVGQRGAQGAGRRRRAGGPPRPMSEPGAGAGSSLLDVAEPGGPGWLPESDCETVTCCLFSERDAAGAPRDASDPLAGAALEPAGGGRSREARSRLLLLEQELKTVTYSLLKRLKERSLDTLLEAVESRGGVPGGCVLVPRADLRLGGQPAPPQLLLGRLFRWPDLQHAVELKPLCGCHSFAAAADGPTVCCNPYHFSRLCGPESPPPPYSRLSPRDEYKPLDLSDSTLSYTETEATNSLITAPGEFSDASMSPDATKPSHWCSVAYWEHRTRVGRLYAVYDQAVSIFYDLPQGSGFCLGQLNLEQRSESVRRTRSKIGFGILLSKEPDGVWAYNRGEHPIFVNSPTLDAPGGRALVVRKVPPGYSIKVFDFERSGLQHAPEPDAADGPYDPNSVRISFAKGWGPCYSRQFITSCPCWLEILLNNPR

[2] = target: T2, HA-PIAS3 (full-length human PIAS3) (human) (UniProt Q9Y6X2); experiment: as above
T2 sequence: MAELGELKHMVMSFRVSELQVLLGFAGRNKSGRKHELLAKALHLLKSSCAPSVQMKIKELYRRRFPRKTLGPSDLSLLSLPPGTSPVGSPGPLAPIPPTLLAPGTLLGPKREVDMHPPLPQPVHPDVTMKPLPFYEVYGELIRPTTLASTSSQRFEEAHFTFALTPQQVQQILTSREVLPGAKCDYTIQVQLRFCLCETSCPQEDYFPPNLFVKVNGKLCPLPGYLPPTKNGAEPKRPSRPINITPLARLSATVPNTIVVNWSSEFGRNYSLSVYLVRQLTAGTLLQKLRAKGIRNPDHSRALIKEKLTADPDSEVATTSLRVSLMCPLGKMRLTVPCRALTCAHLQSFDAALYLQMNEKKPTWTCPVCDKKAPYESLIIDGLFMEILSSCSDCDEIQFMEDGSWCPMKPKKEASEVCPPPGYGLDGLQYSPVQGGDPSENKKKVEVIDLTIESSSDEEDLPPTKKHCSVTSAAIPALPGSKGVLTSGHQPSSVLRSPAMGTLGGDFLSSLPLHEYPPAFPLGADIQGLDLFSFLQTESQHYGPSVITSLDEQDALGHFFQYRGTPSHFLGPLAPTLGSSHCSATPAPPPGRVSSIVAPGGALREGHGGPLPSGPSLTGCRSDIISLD

[3] = target: T3, PIAS3, endogenous in glioma cells (human (endogenous in glioma cells)) (UniProt Q9Y6X2); experiment: co-IP; endogenous proteins in glioma cells (Supplementary Figure 11)
T3 sequence: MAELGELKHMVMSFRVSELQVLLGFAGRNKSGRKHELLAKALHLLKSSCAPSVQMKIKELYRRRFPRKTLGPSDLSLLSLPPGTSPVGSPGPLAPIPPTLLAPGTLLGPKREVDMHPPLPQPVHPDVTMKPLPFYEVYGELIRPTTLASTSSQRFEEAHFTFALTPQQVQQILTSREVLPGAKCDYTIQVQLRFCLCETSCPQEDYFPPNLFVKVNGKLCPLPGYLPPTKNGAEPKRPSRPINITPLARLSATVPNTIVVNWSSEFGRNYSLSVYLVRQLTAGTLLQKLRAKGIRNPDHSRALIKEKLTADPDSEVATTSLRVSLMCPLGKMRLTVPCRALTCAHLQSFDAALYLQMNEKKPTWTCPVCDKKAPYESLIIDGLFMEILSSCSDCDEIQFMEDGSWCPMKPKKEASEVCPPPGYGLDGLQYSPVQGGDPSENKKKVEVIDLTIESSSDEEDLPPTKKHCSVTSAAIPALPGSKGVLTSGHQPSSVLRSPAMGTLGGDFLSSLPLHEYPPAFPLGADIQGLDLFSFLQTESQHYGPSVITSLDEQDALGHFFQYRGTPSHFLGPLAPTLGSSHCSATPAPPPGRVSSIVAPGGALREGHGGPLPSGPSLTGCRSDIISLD

[4] = target: T4, GST-PIAS3 (human) (UniProt Q9Y6X2); experiment: pull-down; GST fusion protein bound to glutathione-agarose beads, incubated 2 h with total lysate of transfected 293T cells; washed three times with GST lysis buffer; western blot; only the target purified
T4 sequence: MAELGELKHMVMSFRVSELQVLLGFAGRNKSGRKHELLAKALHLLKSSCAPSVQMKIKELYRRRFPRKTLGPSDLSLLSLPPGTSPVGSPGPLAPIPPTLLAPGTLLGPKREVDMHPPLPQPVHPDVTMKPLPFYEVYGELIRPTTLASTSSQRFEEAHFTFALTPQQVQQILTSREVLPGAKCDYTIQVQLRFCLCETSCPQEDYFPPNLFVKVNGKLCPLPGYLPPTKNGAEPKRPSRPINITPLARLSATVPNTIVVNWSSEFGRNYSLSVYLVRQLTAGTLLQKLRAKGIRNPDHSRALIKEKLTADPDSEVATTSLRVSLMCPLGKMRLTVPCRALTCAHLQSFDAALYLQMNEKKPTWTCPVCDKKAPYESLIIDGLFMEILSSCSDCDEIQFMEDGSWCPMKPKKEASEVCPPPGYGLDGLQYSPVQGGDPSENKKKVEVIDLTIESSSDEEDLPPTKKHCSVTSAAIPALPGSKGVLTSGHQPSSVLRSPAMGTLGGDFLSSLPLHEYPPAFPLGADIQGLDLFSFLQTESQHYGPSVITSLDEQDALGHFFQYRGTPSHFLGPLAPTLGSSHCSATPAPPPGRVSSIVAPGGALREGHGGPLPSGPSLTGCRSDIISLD

binding [1]: binds
Molecule: His-tagged Smurf1 (human, full length) (from UniProt Q9HCE7 1-757) (enzyme)

binding [3]: binds
B2: Smad6, endogenous in glioma cells (protein, UniProt O43541 1-496)
chain: MFRSKRSGLVRRLWRSRVVPDREEGGSGGGGGGDEDGSLGSRAEPAPRAREGGGCGRSEVRPVAPRRPRDAVGQRGAQGAGRRRRAGGPPRPMSEPGAGAGSSLLDVAEPGGPGWLPESDCETVTCCLFSERDAAGAPRDASDPLAGAALEPAGGGRSREARSRLLLLEQELKTVTYSLLKRLKERSLDTLLEAVESRGGVPGGCVLVPRADLRLGGQPAPPQLLLGRLFRWPDLQHAVELKPLCGCHSFAAAADGPTVCCNPYHFSRLCGPESPPPPYSRLSPRDEYKPLDLSDSTLSYTETEATNSLITAPGEFSDASMSPDATKPSHWCSVAYWEHRTRVGRLYAVYDQAVSIFYDLPQGSGFCLGQLNLEQRSESVRRTRSKIGFGILLSKEPDGVWAYNRGEHPIFVNSPTLDAPGGRALVVRKVPPGYSIKVFDFERSGLQHAPEPDAADGPYDPNSVRISFAKGWGPCYSRQFITSCPCWLEILLNNPR

The next lines start with the molecule.

B1: His-MH2-NLS (Smad6 MH2 domain construct) (domain or fragment, UniProt O43541 331-496)
chain: WCSVAYWEHRTRVGRLYAVYDQAVSIFYDLPQGSGFCLGQLNLEQRSESVRRTRSKIGFGILLSKEPDGVWAYNRGEHPIFVNSPTLDAPGGRALVVRKVPPGYSIKVFDFERSGLQHAPEPDAADGPYDPNSVRISFAKGWGPCYSRQFITSCPCWLEILLNNPR
binding [2]: binds

B3: Flag-Smad6-NLS (nuclear-forced full-length human Smad6) (protein, UniProt O43541 1-496)
chain: MFRSKRSGLVRRLWRSRVVPDREEGGSGGGGGGDEDGSLGSRAEPAPRAREGGGCGRSEVRPVAPRRPRDAVGQRGAQGAGRRRRAGGPPRPMSEPGAGAGSSLLDVAEPGGPGWLPESDCETVTCCLFSERDAAGAPRDASDPLAGAALEPAGGGRSREARSRLLLLEQELKTVTYSLLKRLKERSLDTLLEAVESRGGVPGGCVLVPRADLRLGGQPAPPQLLLGRLFRWPDLQHAVELKPLCGCHSFAAAADGPTVCCNPYHFSRLCGPESPPPPYSRLSPRDEYKPLDLSDSTLSYTETEATNSLITAPGEFSDASMSPDATKPSHWCSVAYWEHRTRVGRLYAVYDQAVSIFYDLPQGSGFCLGQLNLEQRSESVRRTRSKIGFGILLSKEPDGVWAYNRGEHPIFVNSPTLDAPGGRALVVRKVPPGYSIKVFDFERSGLQHAPEPDAADGPYDPNSVRISFAKGWGPCYSRQFITSCPCWLEILLNNPR
binding [2]: binds | binding [4]: binds
